From paper PMC9273615, “Regulation of AUXIN RESPONSE FACTOR condensation and nucleo-cytoplasmic partitioning” (Nature Communications, 2022)
These are yes or no findings as the source states them, for the method shown. In cells and extracts the contact can be indirect. Some binding calls cover weakened binding; strength is not graded here. Where a sequence is shown, tags or fusion partners need not be part of it.

Chains of the proteins cited; added tags and fusions are not shown.
UniProt Q38825: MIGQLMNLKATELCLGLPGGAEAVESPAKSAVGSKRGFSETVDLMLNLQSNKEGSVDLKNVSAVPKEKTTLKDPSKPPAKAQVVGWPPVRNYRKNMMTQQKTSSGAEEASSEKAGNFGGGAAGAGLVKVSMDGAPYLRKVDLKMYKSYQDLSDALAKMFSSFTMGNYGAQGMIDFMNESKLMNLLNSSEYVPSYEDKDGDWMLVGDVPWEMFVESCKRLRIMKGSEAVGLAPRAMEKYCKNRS

What was measured:
[1] = target: T1, GST-AFF1 (AUXIN RESPONSE FACTOR F-BOX1, At3g49150) (Arabidopsis thaliana) (UniProt Q9M3B7); experiment: pull-down; 2 μg purified GST fusion immobilised on glutathione agarose, mixed with 1-2 mg total protein of arf19-1 35S:YFP-ARF19 plant lysate, 4 °C, 2 hr; six washes (PBS pH 7.4, 150 mM NaCl, 0.2% Triton X-100); immunoblot with anti-GFP and anti-GST; only the target purified
T1 sequence: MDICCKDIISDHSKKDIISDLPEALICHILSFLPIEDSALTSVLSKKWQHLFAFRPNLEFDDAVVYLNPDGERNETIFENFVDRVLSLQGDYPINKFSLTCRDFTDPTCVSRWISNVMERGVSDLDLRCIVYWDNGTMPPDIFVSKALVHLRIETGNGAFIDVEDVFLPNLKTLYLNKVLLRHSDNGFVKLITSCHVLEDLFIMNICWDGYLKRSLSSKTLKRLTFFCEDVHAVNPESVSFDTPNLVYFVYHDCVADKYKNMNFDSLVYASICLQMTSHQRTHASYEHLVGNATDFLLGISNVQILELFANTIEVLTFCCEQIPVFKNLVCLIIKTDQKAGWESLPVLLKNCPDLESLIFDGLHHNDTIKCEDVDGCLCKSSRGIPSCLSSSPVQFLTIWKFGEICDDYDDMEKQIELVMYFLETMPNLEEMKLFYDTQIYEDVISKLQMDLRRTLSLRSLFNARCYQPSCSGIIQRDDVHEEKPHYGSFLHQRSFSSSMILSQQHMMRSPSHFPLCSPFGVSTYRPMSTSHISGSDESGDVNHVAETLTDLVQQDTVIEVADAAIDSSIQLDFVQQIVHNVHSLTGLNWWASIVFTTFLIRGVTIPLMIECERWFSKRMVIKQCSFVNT

[2] = target: cEYFP-IAA7 (Arabidopsis thaliana) (UniProt Q38825); experiment: split reporter; BiFC with nEYFP and cEYFP fusions co-infiltrated with the p19 strain into 3-week-old Nicotiana benthamiana leaves, 22 °C, 3 d; confocal microscopy; nuclear marker WPP-mCherry
[3] = target: T2, YFP-ARF19 (AUXIN RESPONSE FACTOR 19) (Arabidopsis thaliana) (UniProt Q8RYC8); experiment: co-IP; plant extract (1.0-2.0 mg protein) incubated with anti-GFP or anti-HA antibody, then Dynabeads Protein G and 2 μg GST, GST-AFF1 or GST-ΔF-box-AFF1 added for 2 hr at 4 °C; six washes; immunoblot with anti-GST; only the binder purified
T2 sequence: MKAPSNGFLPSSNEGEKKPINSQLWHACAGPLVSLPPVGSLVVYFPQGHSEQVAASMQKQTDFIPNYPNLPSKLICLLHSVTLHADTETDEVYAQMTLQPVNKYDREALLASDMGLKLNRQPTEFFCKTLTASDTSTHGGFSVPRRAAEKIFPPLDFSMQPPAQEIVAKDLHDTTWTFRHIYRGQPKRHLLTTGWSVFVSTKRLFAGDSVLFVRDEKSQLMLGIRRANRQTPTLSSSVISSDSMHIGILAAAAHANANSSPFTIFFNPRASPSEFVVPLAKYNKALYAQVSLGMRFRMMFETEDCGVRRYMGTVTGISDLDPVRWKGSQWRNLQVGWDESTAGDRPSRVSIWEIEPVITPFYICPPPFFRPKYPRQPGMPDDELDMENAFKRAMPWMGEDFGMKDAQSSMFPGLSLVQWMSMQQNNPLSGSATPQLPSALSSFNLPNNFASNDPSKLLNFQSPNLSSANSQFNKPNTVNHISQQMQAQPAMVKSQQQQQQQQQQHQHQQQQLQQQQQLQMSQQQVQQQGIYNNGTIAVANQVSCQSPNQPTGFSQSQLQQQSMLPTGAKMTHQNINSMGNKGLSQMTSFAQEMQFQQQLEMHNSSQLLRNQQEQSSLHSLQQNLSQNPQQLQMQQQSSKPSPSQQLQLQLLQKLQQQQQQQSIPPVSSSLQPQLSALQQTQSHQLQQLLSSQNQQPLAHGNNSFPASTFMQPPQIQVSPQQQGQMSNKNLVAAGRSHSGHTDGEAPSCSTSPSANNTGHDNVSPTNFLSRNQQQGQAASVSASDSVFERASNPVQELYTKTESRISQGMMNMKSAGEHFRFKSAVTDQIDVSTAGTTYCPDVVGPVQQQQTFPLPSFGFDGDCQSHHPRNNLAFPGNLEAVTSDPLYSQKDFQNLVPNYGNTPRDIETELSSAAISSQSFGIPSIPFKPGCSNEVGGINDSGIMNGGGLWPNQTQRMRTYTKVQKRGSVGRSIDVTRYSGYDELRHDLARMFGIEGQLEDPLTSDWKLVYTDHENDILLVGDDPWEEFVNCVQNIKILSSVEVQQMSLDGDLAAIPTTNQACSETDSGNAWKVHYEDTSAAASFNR

[4] = target: T3, ARF7-HA (AUXIN RESPONSE FACTOR 7) (Arabidopsis thaliana) (UniProt P93022); experiment: as above
T3 sequence: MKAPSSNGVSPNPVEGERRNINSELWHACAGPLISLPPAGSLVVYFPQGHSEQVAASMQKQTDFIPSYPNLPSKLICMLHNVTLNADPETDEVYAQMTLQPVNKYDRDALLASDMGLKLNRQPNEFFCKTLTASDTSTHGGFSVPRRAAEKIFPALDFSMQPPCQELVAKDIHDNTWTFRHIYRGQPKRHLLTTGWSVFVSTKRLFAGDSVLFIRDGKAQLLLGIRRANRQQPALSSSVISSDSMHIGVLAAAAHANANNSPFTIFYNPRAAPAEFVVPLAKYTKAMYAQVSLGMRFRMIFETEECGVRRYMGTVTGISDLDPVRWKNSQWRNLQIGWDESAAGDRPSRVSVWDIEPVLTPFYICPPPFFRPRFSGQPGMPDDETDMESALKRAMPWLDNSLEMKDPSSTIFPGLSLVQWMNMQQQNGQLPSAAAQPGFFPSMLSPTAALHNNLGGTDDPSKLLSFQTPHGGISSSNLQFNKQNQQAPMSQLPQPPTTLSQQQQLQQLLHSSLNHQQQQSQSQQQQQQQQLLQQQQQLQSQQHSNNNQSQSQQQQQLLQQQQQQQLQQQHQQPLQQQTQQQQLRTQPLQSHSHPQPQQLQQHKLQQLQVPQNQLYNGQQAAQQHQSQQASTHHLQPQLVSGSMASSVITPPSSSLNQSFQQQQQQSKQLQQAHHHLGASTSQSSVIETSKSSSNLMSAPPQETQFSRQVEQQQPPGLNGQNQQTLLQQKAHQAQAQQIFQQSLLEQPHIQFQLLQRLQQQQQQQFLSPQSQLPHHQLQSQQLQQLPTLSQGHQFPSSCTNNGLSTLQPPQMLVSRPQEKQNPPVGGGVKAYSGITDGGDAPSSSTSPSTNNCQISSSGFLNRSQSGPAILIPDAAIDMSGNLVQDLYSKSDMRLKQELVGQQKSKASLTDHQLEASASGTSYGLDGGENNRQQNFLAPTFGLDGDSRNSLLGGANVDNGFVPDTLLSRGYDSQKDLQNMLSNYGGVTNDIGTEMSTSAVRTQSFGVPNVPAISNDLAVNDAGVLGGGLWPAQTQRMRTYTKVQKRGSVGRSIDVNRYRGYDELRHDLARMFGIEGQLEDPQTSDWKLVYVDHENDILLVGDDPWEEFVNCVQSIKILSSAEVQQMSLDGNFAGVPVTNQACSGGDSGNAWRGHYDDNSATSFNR

B1: YFP-ARF19 (AUXIN RESPONSE FACTOR 19) (protein, UniProt Q8RYC8 1-1086)
chain: T2 sequence
Question: Which binding [1] does the source give for B1 here?
Answer: binds

B2: ARF19 as BiFC fusions (nEYFP-ARF19 and cEYFP-ARF19) (protein, UniProt Q8RYC8 1-1086)
chain: T2 sequence
Question: For B2, which binding [2] is on record?
Answer: binds

B3: GST-AFF1 (AUXIN RESPONSE FACTOR F-BOX1, At3g49150) (protein, UniProt Q9M3B7 1-630)
chain: T1 sequence
Question: What does the source list for B3?
Answer: binding [3]: binds; binding [4]: binds
